# Experimental data reported in the supplement of paper PMC4635364.
# Structures can show the parent of a compound that is named as a salt. The list shows a part of the results. This data set is noisy: repeats of one test often differ as much as different tests do.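 Cells: ReNCell VM human fetal ventral-midbrain neural progenitors, differentiated mitogen-free. Blinded raters compared doublecortin-stained (early neurons) or tyrosine hydroxylase-stained (dopaminergic neurons) images with untreated wells, where 0 means no change. After repeats and both raters were averaged, compounds scoring 2 or above became hits for retesting.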
# Legend:
# ReNCell VM [1] = test: neuronal differentiation score (DCX+ cell fraction vs untreated, manual image score) (score (-3 to 3)); higher = more neuronal differentiation; conditions: 2 uM, 2 weeks
# ReNCell VM [2] = test: dopaminergic neuron differentiation score (TH+ cell fraction vs untreated, manual image score) (score (0 to 3)); higher = more TH+ dopaminergic neuron differentiation; conditions: 2 uM, 4 weeks, BDNF 10 ng/ml + GDNF 10 ng/ml
compound,measurement,setting,value
CCCCC(CC)CN=C(N)N=C(N)NCCCCCCNC(N)=NC(N)=NCC(CC)CCCC (stereo not drawn),neuronal differentiation score,ReNCell VM [1]; library: Spectrum,inactive: 0
same,dopaminergic neuron differentiation score,ReNCell VM [2]; library: Spectrum,inactive: 0
COC(=O)Nc1ccc2[nH]cc(CCNC(C)=O)c2c1,neuronal differentiation score,ReNCell VM [1]; library: Tocriscreen,inactive: 0
same,dopaminergic neuron differentiation score,ReNCell VM [2]; library: Tocriscreen,inactive: 0
CC(C)C[C@H](NC(=O)[C@H](O)[C@H](N)Cc1ccccc1)C(=O)O [Epibestatin hydrochloride],neuronal differentiation score,ReNCell VM [1]; library: LOPAC,inactive: 0
same,dopaminergic neuron differentiation score,ReNCell VM [2]; library: LOPAC,inactive: 0
CN1CCc2cccc3c2[C@H]1Cc1ccc(O)c(O)c1-3 [Apomorphine hydrochloride hemihydrate],neuronal differentiation score,ReNCell VM [1]; library: LOPAC,active: 2
same,dopaminergic neuron differentiation score,ReNCell VM [2]; library: LOPAC,inactive: 1
CC(=O)N[C@@H](CC(C)C)C(=O)O [N-Acetyl-L-leucine],neuronal differentiation score,ReNCell VM [1]; library: Prestwick,inactive: 0
same,dopaminergic neuron differentiation score,ReNCell VM [2]; library: Prestwick,inactive: 0
C[C@@H]1CN(CCCn2c3ccccc3c3ccccc32)C[C@H](C)N1 [Rimcazole dihydrochloride],neuronal differentiation score,ReNCell VM [1]; library: Tocriscreen,inactive: 0
same,dopaminergic neuron differentiation score,ReNCell VM [2]; library: Tocriscreen,inactive: 0
CC(C)CCCC(C)C1CCC2C3=CCC4CC(O)CCC4(C)C3CCC21C (stereo not drawn),neuronal differentiation score,ReNCell VM [1]; library: Spectrum,inactive: 0
same,dopaminergic neuron differentiation score,ReNCell VM [2]; library: Spectrum,inactive: 0
Nc1nc(=S)c2ncn([C@@H]3O[C@H](CO)[C@@H](O)[C@H]3O)c2[nH]1 [Thioguanosine],neuronal differentiation score,ReNCell VM [1]; library: Prestwick,inactive: 0
same,dopaminergic neuron differentiation score,ReNCell VM [2]; library: Prestwick,inactive: 0
CCOc1ccc(Cc2nccc3cc(OCC)c(OCC)cc23)cc1OCC,neuronal differentiation score,ReNCell VM [1]; library: Spectrum,inactive: 0
same,dopaminergic neuron differentiation score,ReNCell VM [2]; library: Spectrum,inactive: 0
C=CC(C1=CC(=O)C=CC1=O)c1ccccc1 (stereo not drawn),neuronal differentiation score,ReNCell VM [1]; library: Spectrum,inactive: 0
same,dopaminergic neuron differentiation score,ReNCell VM [2]; library: Spectrum,inactive: 0
CC(C)NC[C@H](O)COc1cccc2ccccc12 [(S)-Propranolol hydrochloride],neuronal differentiation score,ReNCell VM [1]; library: LOPAC,inactive: 0
same,dopaminergic neuron differentiation score,ReNCell VM [2]; library: LOPAC,inactive: 0
CN1CCCC(n2nc(Cc3ccc(Cl)cc3)c3ccccc3c2=O)CC1 (stereo not drawn) [Azelastine HCl],neuronal differentiation score,ReNCell VM [1]; library: Prestwick,inactive: 0
same,dopaminergic neuron differentiation score,ReNCell VM [2]; library: Prestwick,inactive: 0
CN1C(C)(C)CCCC1(C)C [Pempidine tartrate],neuronal differentiation score,ReNCell VM [1]; library: Prestwick,inactive: 0
same,dopaminergic neuron differentiation score,ReNCell VM [2]; library: Prestwick,inactive: 0
COc1c2ccoc2nc2c(OC)c(O[C@@H]3O[C@@H](C)[C@H](O)[C@@H](O)[C@H]3O)ccc12 [glycoperine],neuronal differentiation score,ReNCell VM [1]; library: Natural,inactive: 0
same,dopaminergic neuron differentiation score,ReNCell VM [2]; library: Natural,inactive: 0
C[C@@H]1C[C@H]2[C@@H]3CCC4=CC(=O)C=C[C@]4(C)[C@@]3(Cl)[C@@H](O)C[C@]2(C)[C@@]1(OC(=O)c1ccco1)C(=O)CCl [Mometasone furoate],neuronal differentiation score,ReNCell VM [1]; library: Prestwick,inactive: 0
same,dopaminergic neuron differentiation score,ReNCell VM [2]; library: Prestwick,inactive: 1
Cc1cc(NC(=O)Nc2ccc(N(C)C)cc2)c2cc(F)cc(F)c2n1,neuronal differentiation score,ReNCell VM [1]; library: Tocriscreen,inactive: 0
same,dopaminergic neuron differentiation score,ReNCell VM [2]; library: Tocriscreen,inactive: 0
Cc1cccc(C)c1NC(=O)C[N+](C)(C)C [Lidocaine N-methyl hydrochloride],neuronal differentiation score,ReNCell VM [1]; library: LOPAC,inactive: 0
same,dopaminergic neuron differentiation score,ReNCell VM [2]; library: LOPAC,inactive: 0
CCN(c1ccccc1)c1cc(=NC)n(C)c(C)n1,neuronal differentiation score,ReNCell VM [1]; library: Tocriscreen,inactive: 0
same,dopaminergic neuron differentiation score,ReNCell VM [2]; library: Tocriscreen,inactive: 0
C[C@@H]1C[C@H]2[C@@H]3CCC4=CC(=O)C=C[C@]4(C)[C@@]3(F)[C@@H](O)C[C@]2(C)[C@@]1(O)C(=O)COP(=O)(O)O,neuronal differentiation score,ReNCell VM [1]; library: Spectrum,inactive: 0
same,dopaminergic neuron differentiation score,ReNCell VM [2]; library: Spectrum,inactive: 0
CC(=O)Oc1ccc2c(c1OC(C)=O)OCC1(O)Cc3c(cc(OC(C)=O)c(OC(C)=O)c3OC(C)=O)C21 (stereo not drawn),neuronal differentiation score,ReNCell VM [1]; library: Spectrum,inactive: 0
same,dopaminergic neuron differentiation score,ReNCell VM [2]; library: Spectrum,inactive: 0
O=C1CN(/N=C/c2ccc(-c3ccc([N+](=O)[O-])cc3)o2)C(=O)N1 [Dantrolene sodium],neuronal differentiation score,ReNCell VM [1]; library: LOPAC,inactive: 0
same,dopaminergic neuron differentiation score,ReNCell VM [2]; library: LOPAC,inactive: 0
CC1(CN2CCC(n3c(=O)[nH]c4ccccc43)CC2)OCc2ccccc2-n2cccc21 (stereo not drawn),neuronal differentiation score,ReNCell VM [1]; library: Tocriscreen,inactive: 0
same,dopaminergic neuron differentiation score,ReNCell VM [2]; library: Tocriscreen,inactive: 0
COc1cc(CNC(=O)CCCCCCC(C)C)ccc1O [Dihydrocapsaicin],neuronal differentiation score,ReNCell VM [1]; library: LOPAC,inactive: 0
same,dopaminergic neuron differentiation score,ReNCell VM [2]; library: LOPAC,inactive: 0
Nc1ncn([C@@H]2O[C@H](CO)[C@@H](O)[C@H]2O)c(=O)n1,neuronal differentiation score,ReNCell VM [1]; library: Spectrum,inactive: 0
same,dopaminergic neuron differentiation score,ReNCell VM [2]; library: Spectrum,inactive: 0
CCCCCNC(=N)N/N=C/c1c[nH]c2ccc(OC)cc12,neuronal differentiation score,ReNCell VM [1]; library: Spectrum,inactive: 0
same,dopaminergic neuron differentiation score,ReNCell VM [2]; library: Spectrum,inactive: 0
C=C(NC(=O)C(=C)NC(=O)c1csc(C2=N[C@@H]3c4csc(n4)[C@H]4NC(=O)c5csc(n5)[C@H]([C@](C)(O)[C@@H](C)O)NC(=O)[C@H]5CSC(=N5)/C(=C/C)NC(=O)[C@H]([C@@H](C)O)NC(=O)c5csc(n5)[C@]3(CC2)NC(=O)[C@H](C)NC(=O)C(=C)NC(=O)[C@H](C)NC(=O)[C@H]([C@@H](C)CC)N[C@@H]2C=Cc3c([C@H](C)O)cc(nc3[C@H]2O)C(=O)O[C@@H]4C)n1)C(N)=O [Thiostrepton],neuronal differentiation score,ReNCell VM [1]; library: Prestwick,inactive: 0
same,dopaminergic neuron differentiation score,ReNCell VM [2]; library: Prestwick,inactive: 0
CCCCC1=NC2(CCCC2)C(=O)N1Cc1ccc(-c2ccccc2-c2nnn[nH]2)cc1,neuronal differentiation score,ReNCell VM [1]; library: Spectrum,inactive: 0
same,dopaminergic neuron differentiation score,ReNCell VM [2]; library: Spectrum,inactive: 0
O=C(O)c1ccccc1Nc1cccc(C(F)(F)F)c1,neuronal differentiation score,ReNCell VM [1]; library: Spectrum,inactive: 0
same,dopaminergic neuron differentiation score,ReNCell VM [2]; library: Spectrum,inactive: 0
CC(=O)OCC(=O)[C@@]12OC(C)(C)O[C@@H]1C[C@H]1[C@@H]3C[C@H](F)C4=CC(=O)C=C[C@]4(C)[C@@]3(F)[C@@H](O)C[C@@]12C,neuronal differentiation score,ReNCell VM [1]; library: Spectrum,inactive: 0
same,dopaminergic neuron differentiation score,ReNCell VM [2]; library: Spectrum,inactive: 0

# 3 records picked at random from the list so far, as already listed:
compound,measurement,setting,value
CN1CCc2cccc3c2[C@H]1Cc1ccc(O)c(O)c1-3 [Apomorphine hydrochloride hemihydrate],neuronal differentiation score,ReNCell VM [1]; library: LOPAC,active: 2
Nc1nc(=S)c2ncn([C@@H]3O[C@H](CO)[C@@H](O)[C@H]3O)c2[nH]1 [Thioguanosine],dopaminergic neuron differentiation score,ReNCell VM [2]; library: Prestwick,inactive: 0
CCCCC(CC)CN=C(N)N=C(N)NCCCCCCNC(N)=NC(N)=NCC(CC)CCCC (stereo not drawn),dopaminergic neuron differentiation score,ReNCell VM [2]; library: Spectrum,inactive: 0
